Source: publication PMC2976706
These are yes or no findings as the source states them, for the method shown. Binding seen in cells or lysates may run through a third protein. Some results given as binding are weak or reduced against the parent protein; the word gives no strength. For some assays here: Sequences can lack the tags named with a protein.

Protein sequences, listed by entry. Tags and fused reporters are not part of them.
UniProt Q01094: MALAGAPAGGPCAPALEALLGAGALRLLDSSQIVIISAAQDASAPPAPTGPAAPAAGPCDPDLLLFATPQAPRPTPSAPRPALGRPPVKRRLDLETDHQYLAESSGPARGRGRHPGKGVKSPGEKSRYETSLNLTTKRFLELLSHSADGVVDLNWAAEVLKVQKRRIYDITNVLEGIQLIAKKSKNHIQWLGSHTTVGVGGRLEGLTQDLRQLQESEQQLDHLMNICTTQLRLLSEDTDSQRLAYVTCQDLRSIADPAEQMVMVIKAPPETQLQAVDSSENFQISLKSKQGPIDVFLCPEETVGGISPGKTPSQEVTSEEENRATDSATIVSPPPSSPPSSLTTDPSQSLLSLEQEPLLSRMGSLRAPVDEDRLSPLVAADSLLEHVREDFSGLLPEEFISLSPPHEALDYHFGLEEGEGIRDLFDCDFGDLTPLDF

Key:
[1] = molecular target: T1, GST-Rb (379-928) (human) (UniProt P06400); experiment: pull-down; competitive: GST-Rb (379-928) on beads with a fixed amount of in vitro translated Orc1 and increasing amounts of in vitro translated E2F1 (luciferase as control); only the target purified
T1 sequence: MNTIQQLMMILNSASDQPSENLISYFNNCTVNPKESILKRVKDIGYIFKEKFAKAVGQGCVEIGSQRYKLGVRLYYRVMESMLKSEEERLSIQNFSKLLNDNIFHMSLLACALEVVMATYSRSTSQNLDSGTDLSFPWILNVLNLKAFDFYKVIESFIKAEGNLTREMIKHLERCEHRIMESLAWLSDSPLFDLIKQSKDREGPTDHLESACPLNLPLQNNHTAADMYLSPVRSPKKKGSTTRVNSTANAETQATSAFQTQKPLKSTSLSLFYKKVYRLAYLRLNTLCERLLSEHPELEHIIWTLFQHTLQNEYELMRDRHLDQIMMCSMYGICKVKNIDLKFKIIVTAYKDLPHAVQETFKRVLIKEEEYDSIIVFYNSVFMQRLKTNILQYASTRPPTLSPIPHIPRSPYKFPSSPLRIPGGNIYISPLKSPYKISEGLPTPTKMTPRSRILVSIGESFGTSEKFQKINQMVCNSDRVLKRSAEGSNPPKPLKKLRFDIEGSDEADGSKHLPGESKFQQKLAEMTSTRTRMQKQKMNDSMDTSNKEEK

[2] = molecular target: GST-E2F1 (human) (UniProt Q01094); experiment: pull-down; 1 ug GST fusion protein on glutathione-agarose beads, pretreated with DNase I and RNase A, incubated with in vitro translated [35S]-protein in 0.1 mg/ml ethidium bromide; SDS-PAGE, phosphoimaging; only the target purified
[3] = molecular target: T1, GST-Rb (379-928) (human); experiment: as above
[4] = molecular target: T2, GST fused to the N-terminus (aa. 1-400) of Rb (human) (UniProt P06400); experiment: as above
T2 sequence: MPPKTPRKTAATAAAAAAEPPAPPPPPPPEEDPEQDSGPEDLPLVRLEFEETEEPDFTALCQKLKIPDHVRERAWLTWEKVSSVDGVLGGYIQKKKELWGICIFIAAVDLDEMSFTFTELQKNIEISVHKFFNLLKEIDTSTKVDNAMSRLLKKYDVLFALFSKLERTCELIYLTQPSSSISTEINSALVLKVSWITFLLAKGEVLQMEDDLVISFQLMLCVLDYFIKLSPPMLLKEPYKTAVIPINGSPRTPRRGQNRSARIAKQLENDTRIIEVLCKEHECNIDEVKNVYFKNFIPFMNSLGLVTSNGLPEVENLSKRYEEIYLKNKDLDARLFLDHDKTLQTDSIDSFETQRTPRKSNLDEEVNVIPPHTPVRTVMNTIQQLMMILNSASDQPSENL

[5] = molecular target: T3, GST-Rb AE Cys706Phe (human) (UniProt P06400); experiment: as above
T3 sequence: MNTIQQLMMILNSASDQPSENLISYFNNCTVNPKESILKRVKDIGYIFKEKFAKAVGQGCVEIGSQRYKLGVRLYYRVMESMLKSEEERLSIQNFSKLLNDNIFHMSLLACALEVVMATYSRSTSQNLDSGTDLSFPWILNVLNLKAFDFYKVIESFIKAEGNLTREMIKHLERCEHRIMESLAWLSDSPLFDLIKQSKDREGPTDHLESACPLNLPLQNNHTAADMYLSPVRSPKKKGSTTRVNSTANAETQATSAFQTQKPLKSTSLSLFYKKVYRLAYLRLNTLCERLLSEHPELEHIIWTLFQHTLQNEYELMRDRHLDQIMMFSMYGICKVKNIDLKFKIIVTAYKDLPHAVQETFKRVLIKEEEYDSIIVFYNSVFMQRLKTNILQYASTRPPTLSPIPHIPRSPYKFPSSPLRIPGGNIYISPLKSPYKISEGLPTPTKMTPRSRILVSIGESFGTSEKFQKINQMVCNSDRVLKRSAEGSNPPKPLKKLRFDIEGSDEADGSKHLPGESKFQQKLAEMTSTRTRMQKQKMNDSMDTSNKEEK

B1: in vitro translated [35S]-labelled human Orc1 (protein, UniProt Q13415 1-861)
chain: MAHYPTRLKTRKTYSWVGRPLLDRKLHYQTYREMCVKTEGCSTEIHIQIGQFVLIEGDDDENPYVAKLLELFEDDSDPPPKKRARVQWFVRFCEVPACKRHLLGRKPGAQEIFWYDYPACDSNINAETIIGLVRVIPLAPKDVVPTNLKNEKTLFVKLSWNEKKFRPLSSELFAELNKPQESAAKCQKPVRAKSKSAESPSWTPAEHVAKRIESRHSASKSRQTPTHPLTPRARKRLELGNLGNPQMSQQTSCASLDSPGRIKRKVAFSEITSPSKRSQPDKLQTLSPALKAPEKTRETGLSYTEDDKKASPEHRIILRTRIAASKTIDIREERTLTPISGGQRSSVVPSVILKPENIKKRDAKEAKAQNEATSTPHRIRRKSSVLTMNRIRQQLRFLGNSKSDQEEKEILPAAEISDSSSDEEEASTPPLPRRAPRTVSRNLRSSLKSSLHTLTKVPKKSLKPRTPRCAAPQIRSRSLAAQEPASVLEEARLRLHVSAVPESLPCREQEFQDIYNFVESKLLDHTGGCMYISGVPGTGKTATVHEVIRCLQQAAQANDVPPFQYIEVNGMKLTEPHQVYVQILQKLTGQKATANHAAELLAKQFCTRGSPQETTVLLVDELDLLWTHKQDIMYNLFDWPTHKEARLVVLAIANTMDLPERIMMNRVSSRLGLTRMCFQPYTYSQLQQILRSRLKHLKAFEDDAIQLVARKVAALSGDARRCLDICRRATEICEFSQQKPDSPGLVTIAHSMEAVDEMFSSSYITAIKNSSVLEQSFLRAILAEFRRSGLEEATFQQIYSQHVALCRMEGLPYPTMSETMAVCSHLGSCRLLLVEPSRNDLLLRVRLNVSQDDVLYALKDE
modifications: [35S]-labelled
For B1, the binding [1] was “binds”, the binding [2] was “no binding” and the binding [3] was “binds”. The binding [4] was “no binding” and the binding [5] was “binds”.
